## Assay results

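A panel of P. falciparum strains inside erythrocytes is exposed to compounds for three days, then a DNA-binding dye reports the amount of parasite DNA.
Each compound was titrated across a series from about 0.000037 to 29 µM.
The number is the fitted AC50, the concentration giving a half-maximal change in signal; a lower value means higher potency, whether the curve shows a decrease or an increase.
Calls follow the curve class and fit quality: every row here is inconclusive, covering signal-raising curves and weak, poorly fitted, partial or highest-dose-only inhibition curves.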

Values are in µM.
Every entry below has the call inconclusive.
These entries are mostly ones the record files as inconclusive; other results of the assay are not listed here.
A potency from a partial, single-point or poor curve is only a rough figure.

- CCN(CC)CCC(=O)N1c2ccccc2Sc2ccc(Cl)cc21 [TAB109] : potency 6.31 µM (inhibitor, partial curve)
- CCN(CC)CCC(=O)N1c2ccccc2Sc2ccc(Cl)cc21 [CP211] : potency 13.46 µM (inhibitor, partial curve)
- CCN(CC)CCC(=O)N1c2ccccc2Sc2ccc(Cl)cc21 [CP268] : potency 4.776 µM (inhibitor, partial curve, poor fit)
- CCN(CC)CCC(=O)N1c2ccccc2Sc2ccc(Cl)cc21 [PC15] : potency 5.012 µM (inhibitor, partial curve)
- CCN(CC)CCC(=O)N1c2ccccc2Sc2ccc(Cl)cc21 [GB4] : potency 6.746 µM (inhibitor, partial curve, poor fit)
- CCN(CC)CCC(=O)N1c2ccccc2Sc2ccc(Cl)cc21 [CP250] : potency 11.22 µM (inhibitor, single point)
- CCN(CC)CCC(=O)N1c2ccccc2Sc2ccc(Cl)cc21 [CP238] : potency 5.623 µM (inhibitor, partial curve)
- CCN(CC)CCC(=O)N1c2ccccc2Sc2ccc(Cl)cc21 [DIV30] : potency 7.569 µM (inhibitor, partial curve)
- CCN(CC)CCC(=O)N1c2ccccc2Sc2ccc(Cl)cc21 [CP194] : potency 10.69 µM (inhibitor, partial curve)
- CCN(CC)CCC(=O)N1c2ccccc2Sc2ccc(Cl)cc21 [PAD] : potency 5.623 µM (inhibitor, partial curve, poor fit)
- CCN(CC)CCC(=O)N1c2ccccc2Sc2ccc(Cl)cc21 [ICS] : potency 4.467 µM (inhibitor, partial curve)
- CCN(CC)CCC(=O)N1c2ccccc2Sc2ccc(Cl)cc21 [ATS95] : potency 5.012 µM (inhibitor, partial curve)
- CCN(CC)CCC(=O)N1c2ccccc2Sc2ccc(Cl)cc21 [CP325] : potency 0.3381 µM (inhibitor, full curve, poor fit)
- CCN(CC)CCC(=O)N1c2ccccc2Sc2ccc(Cl)cc21 [AS120] : potency 7.943 µM (inhibitor, partial curve)
- CCN(CC)CCC(=O)N1c2ccccc2Sc2ccc(Cl)cc21 [CP191] : potency 10 µM (inhibitor, single point)
- CCN(CC)CCC(=O)N1c2ccccc2Sc2ccc(Cl)cc21 [ECU] : potency 11.22 µM (inhibitor, partial curve)
- CCN(CC)CCC(=O)N1c2ccccc2Sc2ccc(Cl)cc21 [CP335] : potency 5.358 µM (inhibitor, partial curve)
- CCN(CC)CCC(=O)N1c2ccccc2Sc2ccc(Cl)cc21 [CP247] : potency 11.22 µM (inhibitor, single point)
- CCN(CC)CCC(=O)N1c2ccccc2Sc2ccc(Cl)cc21 [TAB113] : potency 3.548 µM (inhibitor, single point)
- CCN(CC)CCC(=O)N1c2ccccc2Sc2ccc(Cl)cc21 [C2A] : potency 6.31 µM (inhibitor, partial curve)
- CCN(CC)CCC(=O)N1c2ccccc2Sc2ccc(Cl)cc21 [CP305] : potency 5.358 µM (inhibitor, partial curve)
- CCN(CC)CCC(=O)N1c2ccccc2Sc2ccc(Cl)cc21 [CP203] : potency 7.569 µM (inhibitor, partial curve, poor fit)

For reference, 2 entries once more:

{"compound": "CCN(CC)CCC(=O)N1c2ccccc2Sc2ccc(Cl)cc21", "tested on / at": "AS120", "potency (µM)": "7.943", "remark": "inhibitor, partial curve"}
{"compound": "CCN(CC)CCC(=O)N1c2ccccc2Sc2ccc(Cl)cc21", "tested on / at": "CP203", "potency (µM)": "7.569", "remark": "inhibitor, partial curve, poor fit"}

Source: PubChem BioAssay AID504749 (NCATS, 2011).